Data taken from article PMC12643063, “Mechanistic basis for inhibition of the extended‐spectrum β‐lactamase GES‐1 by enmetazobactam and tazobactam” (Febs Letters, 2025).
Results are given in words; binding and its absence hold for the method and conditions named.

Sequences of proteins named here, by UniProt entry; tags and fusion partners are left off. Residues count along the entry.
UniProt Q9KJY7, residues 18-287: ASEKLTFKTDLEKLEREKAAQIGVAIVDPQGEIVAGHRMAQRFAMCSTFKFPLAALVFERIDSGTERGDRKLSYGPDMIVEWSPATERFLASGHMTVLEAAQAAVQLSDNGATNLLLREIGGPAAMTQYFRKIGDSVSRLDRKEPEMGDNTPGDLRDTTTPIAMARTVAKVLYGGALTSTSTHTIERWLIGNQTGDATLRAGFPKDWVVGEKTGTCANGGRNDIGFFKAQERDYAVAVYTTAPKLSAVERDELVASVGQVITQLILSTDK

Target: GES-1 (Guiana extended-spectrum β-lactamase 1) (Klebsiella pneumoniae, UniProt Q9KJY7)
Assay: SEC; size exclusion chromatography of purified GES-1; conditions not told for this statement (the purification used HiLoad 16/600 Superdex 75 pg in 20 mM Tris pH 8.0, 150 mM NaCl); both purified

GES-1 (Guiana extended-spectrum β-lactamase 1) (from UniProt Q9KJY7 18-287) (enzyme)
binding: no binding
